# Data taken from publication doi:10.1101/2023.07.24.550339.
# No constants are given. Whether binding was seen depends on the method and setting. For some of these results: Binding seen in cells or lysates may run through a third protein. Some entries that bind do so weakly or less than the wild type.
# Experiments:
# LexA-Rab35S22N (human) = LexA-Rab35S22N (human) (UniProt Q15286); assay: two-hybrid
# LexA-Rab35WT (human) = LexA-Rab35WT (human) (UniProt Q15286); assay: two-hybrid
# LexA-Rab35Q67L (human) = LexA-Rab35Q67L (human) (UniProt Q15286); assay: two-hybrid
# [1] = biological target: Rac1BD-Rab35BD (MiniBAR70-553), recombinant (human) (UniProt O15063); assay: SEC
# [2] = biological target: Rac1BD-Rab35BDA461R (MiniBAR70-553 A461R), recombinant (human) (UniProt O15063); assay: SEC
# [3] = biological target: Rac1BDA140V-Rab35BD (MiniBAR70-553 A140V), recombinant (human) (UniProt O15063); assay: SEC
# [4] = biological target: Rab35BD (MiniBAR225-553), recombinant (human) (UniProt O15063); assay: SEC-MALS
# [5] = biological target: Rac1BD-Rab35BD (MiniBAR70-553), recombinant (human) (UniProt O15063); assay: SEC-MALS
# [6] = biological target: Rab35BD (MiniBAR225-553), recombinant (human) (UniProt O15063); assay: SAXS
# 3xFLAG-Rab35Q67L = 3xFLAG-Rab35Q67L (UniProt Q15286); assay: co-IP
substance,measurement,setting,value
GAD-MiniBAR Rab35BD (MiniBAR225-553) (from UniProt O15063 225-553) (domain or fragment),binding,LexA-Rab35S22N (human),no binding
same,binding,LexA-Rab35WT (human),binds
same,binding,LexA-Rab35Q67L (human),binds
GAD-MiniBAR full length (from UniProt O15063 1-1070),binding,LexA-Rab35S22N (human),no binding
same,binding,LexA-Rab35Q67L (human),binds
GAD-MiniBAR full length A461R (from UniProt O15063 1-1070),binding,LexA-Rab35Q67L (human),no binding
His-tagged-Rab35-GPPNHP (from UniProt Q15286 1-201),binding,[1],binds
"Rab35-GPPNHP, recombinant (from UniProt Q15286 1-201)",binding,[2],no binding
same,binding,[3],binds
same,binding,[4],binds
same,binding,[5],binds
"Rab35BD (MiniBAR225-553), recombinant (from UniProt O15063 225-553) (domain or fragment)",binding,[6],no binding
endogenous MiniBAR (from UniProt O15063 1-1070),binding,3xFLAG-Rab35Q67L,binds
